Source: PMC7875385
These are yes or no findings as the source states them, for the method shown. Binding seen in cells or lysates may run through a third protein. Some entries that bind do so weakly or less than the wild type. Where a sequence is shown, tags or fusion partners need not be part of it.

Amino acid sequences for entries named in this document (tags omitted).
UniProt Q15648: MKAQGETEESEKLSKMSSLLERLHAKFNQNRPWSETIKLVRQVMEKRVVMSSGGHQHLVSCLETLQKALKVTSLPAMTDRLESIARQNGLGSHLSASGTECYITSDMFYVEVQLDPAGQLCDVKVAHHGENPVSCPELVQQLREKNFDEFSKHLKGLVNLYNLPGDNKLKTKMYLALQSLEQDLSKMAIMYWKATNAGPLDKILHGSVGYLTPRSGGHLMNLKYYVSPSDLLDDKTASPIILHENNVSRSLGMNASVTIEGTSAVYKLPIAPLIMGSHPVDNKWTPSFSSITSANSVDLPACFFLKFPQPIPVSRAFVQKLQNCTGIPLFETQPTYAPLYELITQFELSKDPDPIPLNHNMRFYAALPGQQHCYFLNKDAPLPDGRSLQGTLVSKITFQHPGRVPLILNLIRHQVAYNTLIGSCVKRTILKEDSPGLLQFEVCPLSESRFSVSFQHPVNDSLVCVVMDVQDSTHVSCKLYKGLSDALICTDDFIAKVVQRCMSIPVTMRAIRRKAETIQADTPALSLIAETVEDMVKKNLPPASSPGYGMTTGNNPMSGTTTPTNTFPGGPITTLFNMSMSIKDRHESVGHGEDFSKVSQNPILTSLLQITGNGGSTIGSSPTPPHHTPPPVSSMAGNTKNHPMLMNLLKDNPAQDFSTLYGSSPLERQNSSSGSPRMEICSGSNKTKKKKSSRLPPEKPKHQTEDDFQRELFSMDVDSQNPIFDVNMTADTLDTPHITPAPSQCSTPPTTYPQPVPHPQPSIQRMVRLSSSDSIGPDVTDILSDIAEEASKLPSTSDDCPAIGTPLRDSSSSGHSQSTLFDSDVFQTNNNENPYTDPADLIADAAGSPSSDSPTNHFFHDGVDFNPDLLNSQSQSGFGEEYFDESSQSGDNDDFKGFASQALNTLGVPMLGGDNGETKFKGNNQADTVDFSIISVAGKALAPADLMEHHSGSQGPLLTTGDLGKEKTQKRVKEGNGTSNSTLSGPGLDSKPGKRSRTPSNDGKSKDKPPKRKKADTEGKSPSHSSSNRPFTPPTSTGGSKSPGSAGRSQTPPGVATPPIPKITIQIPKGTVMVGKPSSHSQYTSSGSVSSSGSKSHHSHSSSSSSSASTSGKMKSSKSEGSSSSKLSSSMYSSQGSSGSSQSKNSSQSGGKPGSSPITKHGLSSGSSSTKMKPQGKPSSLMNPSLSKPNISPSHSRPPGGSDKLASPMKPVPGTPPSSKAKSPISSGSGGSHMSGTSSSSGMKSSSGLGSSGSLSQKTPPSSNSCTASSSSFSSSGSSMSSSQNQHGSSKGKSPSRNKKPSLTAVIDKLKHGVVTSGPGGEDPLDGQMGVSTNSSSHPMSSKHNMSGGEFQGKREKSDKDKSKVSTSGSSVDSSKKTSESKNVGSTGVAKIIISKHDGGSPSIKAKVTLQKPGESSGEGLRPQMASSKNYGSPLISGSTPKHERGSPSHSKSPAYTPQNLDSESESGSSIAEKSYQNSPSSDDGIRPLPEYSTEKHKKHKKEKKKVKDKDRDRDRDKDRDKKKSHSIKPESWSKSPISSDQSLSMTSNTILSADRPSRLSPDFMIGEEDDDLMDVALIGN

Molecular target: T1, FLAG-tagged MED19 (MYC- and FLAG-tagged MED19 stably overexpressed in LNCaP cells) (UniProt A0JLT2)
T1 sequence: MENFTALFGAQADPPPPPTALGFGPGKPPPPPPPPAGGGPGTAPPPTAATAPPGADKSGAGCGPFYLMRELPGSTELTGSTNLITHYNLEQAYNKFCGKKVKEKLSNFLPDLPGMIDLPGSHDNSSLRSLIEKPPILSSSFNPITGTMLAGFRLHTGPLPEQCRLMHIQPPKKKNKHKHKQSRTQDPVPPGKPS
Test: co-IP; MED19 LNCaP and control LNCaP cells in androgen-containing media, lysed with RIPA buffer; FLAG-tagged MED19 immunoprecipitated with FLAG antibody coupled to protein A/G agarose beads; blots for MYC, AR and MED1

Q: How did the binding turn out when “Mediator subunit MED1 (from UniProt Q15648 1-1581)” was run?
A: binds
